Consider one compound from patent US10117912B2 (priority 2013, dated 2018).

In one data set the test system is MDCKII-wt monolayer. The settings on record: dog, MDCK, pH 7.4.
The subject of another data set is MDCKII-wt monolayers. Conditions: pH 7.4.

For `CN1C(=O)CN=C(c2ccccc2)c2cc(Cl)ccc21` [diazepam], in the data set on MDCKII-wt monolayer, the “flux across MDCKII-wt monolayer” value came out at 0.00045±0.00007 μg/cm^2 s. Moreover, the “effect on TEER (monolayer integrity)” value in the data set on MDCKII-wt monolayers is recorded as “unaffected”.
